The AC50 is the concentration at which the activity in the assay is half-maximal.

Assay [1] can be described thus: qHTS Assay for Inhibitors of PDE-IV (AID 607). The note with it: HEK293 ACTOne CNG channel cells, membrane potential fluorescence; measured here: parental cell counter-screen. An outline of the steps:
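ACTOne HEK293 cells carry a modified cAMP-gated CNG channel and express endogenous PDE4; plated 1000 cells/well, compounds up to 22.9 uM final. Membrane-potential dye fluorescence (ex 535/em 590) was read; parental cells received 10 uM forskolin + 100 uM RO 20-1724.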

Assay [2] in a line: qHTS Assay for Lipid Storage Modulators (AID 1519). To be noted: Drosophila S3 cells, BODIPY lipid droplet/cell ratio, laser cytometry, cells loaded with oleic acid; for AC50: measured here: lipid (BODIPY) channel AC50. Summed up: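 Cells seeded at 5,000 per well were treated with compounds over a concentration series and loaded with oleic acid (400 uM, as added). Lipid droplet fluorescence (488 nm excitation, 500-530 nm channel) was read by laser-scanning cytometry and normalized to 20 uM Triacsin C.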
A general note: In qHTS, concentration-response curves come from the screen itself.

Assay [3] in a line: qHTS assay for small molecule agonists of retinoid X receptor alpha signaling (AID 588544). To be noted: HEK293T RXRa-UAS-bla, beta-lactamase reporter, 18 h; 530 nm emission.
Assay [4] can be described thus: A High-Content qHTS Against Drug Library for the Identification of Small Molecules that Inhibit DYT1 Early Onset Primary Dystonia-Associated Cell Pathology (AID 1645839). To be noted: HEK293 Flp-In EGFP-delE TorsinA, punctate imaging, 48 h; measured here: cell count cytotoxicity. Summed up:
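In this high-content image screen, delE TorsinA mislocalization in inducible Flp-In 293 cells is scored as %pathology, with cell count serving as the counterscreen. Compound exposure lasts 48 h under tetracycline induction in reduced-serum medium.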

The nature of assay [5]: qHTS Assay for Modulators of Human Peripheral Myelin Protein 22 (PMP22) Expression/Activity (AID 1967). To be noted: Cell-based PMP22 reporter, dual-color luciferase ratio. Summed up:
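Engineered MSC80 cells, Pmp22-promoter green and EF-alpha red luciferase reporters; 24h compound treatment at 37 °C. Concentration-response fits on green, red and ratio signals, each overlap-corrected, with %Activity normalized to untreated wells.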

Assay [6] is described as follows: qHTS assay for small molecule antagonists of peroxisome proliferator-activated receptor delta signaling (AID 588535).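 Also: cells co-treated with a PPAR-delta agonist as stimulator during compound exposure.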 The note with it: HEK293T PPARd-UAS-bla, beta-lactamase FRET ratio, 18 h; 460 nm channel. An outline of the steps:
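Cell-based beta-lactamase assay in antagonist mode: 4000 HEK293T PPAR-delta-UAS-bla cells per well, 5 hr preincubation then 18 hr compound incubation at 37 C. IC50 obtained by Hill equation fitting.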

Assay [7] in a line: qHTS assay for small molecule antagonists of peroxisome proliferator-activated receptor gamma signaling (AID 588537). The note with it: HEK293 PPARg-UAS-bla, beta-lactamase ratio, antagonist mode; measured here: W460 blue channel. An outline of the steps: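 Inhibitors of agonist-stimulated UAS-bla reporter activity were sought in HEK293 cells; rosiglitazone (50 nM) defined full signal and DMSO baseline. Curves fitted to Hill model gave IC50 and efficacy.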

Assay [8] is described as follows: qHTS Validation Assay to Find Inhibitors of Chronic Active B-Cell Receptor Signaling (AID 485345). To be noted: ABC-DLBCL cells, chronic BCR signaling reporter. An outline of the steps:
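Read-out: ratio of filter-corrected green (IkappaBalpha fusion) to red (native) luciferase signal in doxycycline-induced TMD8 cells after 4 h at 37C. Titration spanned 46 uM–3 nM; Data were normalised to basal cells and 10 uM MG-132 wells.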

The nature of assay [9]: Nrf2 qHTS screen for inhibitors: Validation (AID 493153). The note with it: A549 ARE-Fluc reporter, 18-24 h; AC50: CellTiter-Fluor fluorescence read, measured here: cytotoxicity CellTiter-Fluor AC50; viability change: measured here: cytotoxicity max response. An outline of the steps: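 A549 cells carrying an ARE-driven firefly luciferase reporter, in 5% FBS OPTI-MEM, were treated with compounds in concentration-response for 18-24 h at 37°C. Viability was read by CellTiter-Fluor fluorescence, then Nrf2 activity by luciferase luminescence.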

The mark [10] stands for this setting: measured here: cell count channel max response.
The mark [11] stands for this setting: measured here: lipid channel max response.
Setting [12] is: measured here: green reporter channel AC50, mouse Pmp22 promoter in mouse Schwann cells.
Setting [13] is: measured here: red reporter channel AC50, EF-alpha promoter control reporter in MSC80 mouse Schwann cells.

The list shows a part of the results. The main result of the screen is listed elsewhere. These columns were measured beside it and carry no call. Compounds called inactive in the main read-out are mostly missing here. For part of these data: Words in brackets tell the shape of the fitted curve; partial curves, single points and poor fits give uncertain potencies.

Regarding `CN(CCc1ccc(Cl)c(Cl)c1)[C@H]1CCCC[C@H]1N1CCCC1`, the AC50 in assay [1] was 15.8 µM [rising, partial curve]; in [2], 35.5 µM [rising, single point]. The max response in [2] (setting [10]) is 28.7%; in assay [2] (setting [11]), 35%.

Take `Clc1cnc(Oc2ccc(Oc3ncc(Cl)cc3Cl)cc2)c(Cl)c1`: the max response was 36.7% in [2] (setting [10]), 36.9% in [2] (setting [11]) and -7.54% in assay [3].

On to `CCC(OC(C)=O)C(CC(C)NC)(c1ccccc1)c1ccccc1` (centres undefined), for which the AC50 in assay [4] was 11.2 µM [falling, partial curve, poor fit].

In the case of `CCCN(CCC)c1c([N+](=O)[O-])cc(S(N)(=O)=O)cc1[N+](=O)[O-]`, the AC50 in assay [4] was 1.12 µM [falling, full curve, poor fit].

In the case of `Oc1ccc([C@H]2CNCc3c2ccc(O)c3O)cc1O`, the half-maximal activity concentration (AC50) in [4] was 12.6 µM [falling, single point].

As to `CC(C)NC(C)Cc1ccc(I)cc1` (centres undefined), the max response in assay [2] (setting [10]) worked out at 28.7%; in assay [2] (setting [11]), 31.7%. Further, the concentration at half-maximal activity (AC50) was 84.9 µM [falling, single point] in [5] (setting [12]) and 84.9 µM [falling, single point] in assay [5] (setting [13]).

Turning to `Clc1ccc(CCC(Cn2ccnc2)Sc2c(Cl)cccc2Cl)cc1` (centres undefined), in assay [4], the concentration at half-maximal activity (AC50) is 5.62 µM [falling, partial curve, poor fit].

As to `C[N+]1(C)C2CCC1CC(OC(=O)c1c[nH]c3ccccc13)C2` (centres undefined), the max response worked out at 44.1% in assay [2] (setting [10]) and 41% in assay [2] (setting [11]). The half-maximal activity concentration (AC50) in [5] (setting [12]) was 53.6 µM [falling, partial curve]; in [5] (setting [13]), 75.7 µM [falling, single point].

Consider `c1ccc2c(c1)Sc1ccccc1N2CC1CN2CCC1CC2` (centres undefined), for which the AC50 in [4] was 15.8 µM [falling, single point].

Consider `CC(C)=C[C@@H]1[C@@H](C(=O)OCc2coc(Cc3ccccc3)c2)C1(C)C`, for which the half-maximal activity concentration (AC50) in assay [4] is 14.1 µM [rising, single point].

Take `CCCN(CCC)CCc1c[nH]c2ccccc12`: the AC50 in [4] is 56.2 µM [falling, single point].

Regarding `CC[C@H](O)C(C[C@H](C)N(C)C)(c1ccccc1)c1ccccc1`, in assay [4], the AC50 was 39.8 µM [falling, partial curve, poor fit].

On to `CC(C)(C)NCC(O)c1cc(Cl)c(N)c(C(F)(F)F)c1` (centres undefined), for which the AC50 in assay [4] is 1.78 µM [falling, full curve, poor fit].

Turning to `COP(=S)(OC)Oc1ccc([N+](=O)[O-])cc1`, the AC50 in assay [2] is 17.8 µM [falling, single point]; in assay [7] it was 35.5 µM [falling, partial curve, poor fit]. In assay [6], the max response is -0.273%.

As for `CN(C)CCc1c[nH]c2ccccc12`, the AC50 in assay [4] was 112 µM [falling, single point].

Consider `CCCn1c(=O)c2[nH]c(C3CCCC3)nc2n(CCCOC(=O)c2ccc(S(=O)(=O)F)cc2)c1=O`, for which the figures for the max response in assay [2] (setting [10]) and in assay [2] (setting [11]) were 45% and 44.3%, respectively. The concentration at half-maximal activity (AC50) in [5] (setting [12]) was 75.7 µM [falling, partial curve]; in assay [5] (setting [13]), 47.8 µM [falling, partial curve, poor fit]; in [8] (measured here: CBG/CBR ratio read-out) it was 29.1 µM [falling, single point]; in assay [8] (measured here: CBR control luciferase (viability counter)), 9.2 µM [falling, partial curve].

With `COc1cc(CC(C)N)cc2c1OCO2` (centres undefined), the AC50 in assay [4] is 39.8 µM [falling, single point].

Consider `Cc1ncc(CNC(=O)N(CCCl)N=O)c(N)n1`, for which the max response in assay [2] (setting [10]) was 34.1%; in assay [2] (setting [11]), 36.3%. Further, the AC50 in assay [5] (setting [13]) was 84.9 µM [falling, single point]. This molecule also returned a viability change in assay [9] of 2.3%.

These data come from PubChem BioAssay (NCATS).
